These are yes or no findings as the source states them, for the method shown. In cells and extracts the contact can be indirect. These calls come from enrichment with a bait or labelling near it, and not all partners need be listed. A no says only that the protein was not detected with the bait.
Experiments:
[1] = target: SMARCA4 (BRG1) (human (endogenous in NCI-H660 and LNCaP)) (UniProt P51532); test: affinity purification with mass spectrometry; second co-IP (validation): anti-Brg-1 antibodies cross-linked to Protein G magnetic beads, nuclear lysate of NCI-H660 (CRPC-NE) cells overnight, elution with 8 M urea, dimethyl labelling against IgG control, MS
[2] = target: SMARCA4 (BRG1) (human (endogenous in NCI-H660 and LNCaP)) (UniProt P51532); test: affinity purification with mass spectrometry; second co-IP (validation): anti-Brg-1 antibodies cross-linked to Protein G magnetic beads, nuclear lysate of LNCaP (adenocarcinoma) cells overnight, elution with 8 M urea, dimethyl labelling against IgG control, MS
[3] = target: BAF155 (SMARCC1), core SWI/SNF subunit (human (endogenous in NCI-H660 and LNCaP-AR)) (UniProt Q92922); test: affinity purification with mass spectrometry; co-IP with anti-BAF155 antibody (rabbit IgG isotype control) from nuclear fraction of NCI-H660 (CRPC-NE) cells, low stringency, overnight 4 °C, Protein G magnetic beads, washes with CoIP buffer and 150 mM NaCl, 50 mM Tris-HCl pH 8; LC-MS/MS
[4] = target: BAF155 (SMARCC1), core SWI/SNF subunit (human (endogenous in NCI-H660 and LNCaP-AR)) (UniProt Q92922); test: affinity purification with mass spectrometry; co-IP with anti-BAF155 antibody (rabbit IgG isotype control) from nuclear fraction of LNCaP-AR (adenocarcinoma) cells, low stringency, overnight 4 °C, Protein G magnetic beads, washes with CoIP buffer and 150 mM NaCl, 50 mM Tris-HCl pH 8; LC-MS/MS

Protein sequences, listed by entry. Tags and fused reporters are not part of them.
UniProt P51532: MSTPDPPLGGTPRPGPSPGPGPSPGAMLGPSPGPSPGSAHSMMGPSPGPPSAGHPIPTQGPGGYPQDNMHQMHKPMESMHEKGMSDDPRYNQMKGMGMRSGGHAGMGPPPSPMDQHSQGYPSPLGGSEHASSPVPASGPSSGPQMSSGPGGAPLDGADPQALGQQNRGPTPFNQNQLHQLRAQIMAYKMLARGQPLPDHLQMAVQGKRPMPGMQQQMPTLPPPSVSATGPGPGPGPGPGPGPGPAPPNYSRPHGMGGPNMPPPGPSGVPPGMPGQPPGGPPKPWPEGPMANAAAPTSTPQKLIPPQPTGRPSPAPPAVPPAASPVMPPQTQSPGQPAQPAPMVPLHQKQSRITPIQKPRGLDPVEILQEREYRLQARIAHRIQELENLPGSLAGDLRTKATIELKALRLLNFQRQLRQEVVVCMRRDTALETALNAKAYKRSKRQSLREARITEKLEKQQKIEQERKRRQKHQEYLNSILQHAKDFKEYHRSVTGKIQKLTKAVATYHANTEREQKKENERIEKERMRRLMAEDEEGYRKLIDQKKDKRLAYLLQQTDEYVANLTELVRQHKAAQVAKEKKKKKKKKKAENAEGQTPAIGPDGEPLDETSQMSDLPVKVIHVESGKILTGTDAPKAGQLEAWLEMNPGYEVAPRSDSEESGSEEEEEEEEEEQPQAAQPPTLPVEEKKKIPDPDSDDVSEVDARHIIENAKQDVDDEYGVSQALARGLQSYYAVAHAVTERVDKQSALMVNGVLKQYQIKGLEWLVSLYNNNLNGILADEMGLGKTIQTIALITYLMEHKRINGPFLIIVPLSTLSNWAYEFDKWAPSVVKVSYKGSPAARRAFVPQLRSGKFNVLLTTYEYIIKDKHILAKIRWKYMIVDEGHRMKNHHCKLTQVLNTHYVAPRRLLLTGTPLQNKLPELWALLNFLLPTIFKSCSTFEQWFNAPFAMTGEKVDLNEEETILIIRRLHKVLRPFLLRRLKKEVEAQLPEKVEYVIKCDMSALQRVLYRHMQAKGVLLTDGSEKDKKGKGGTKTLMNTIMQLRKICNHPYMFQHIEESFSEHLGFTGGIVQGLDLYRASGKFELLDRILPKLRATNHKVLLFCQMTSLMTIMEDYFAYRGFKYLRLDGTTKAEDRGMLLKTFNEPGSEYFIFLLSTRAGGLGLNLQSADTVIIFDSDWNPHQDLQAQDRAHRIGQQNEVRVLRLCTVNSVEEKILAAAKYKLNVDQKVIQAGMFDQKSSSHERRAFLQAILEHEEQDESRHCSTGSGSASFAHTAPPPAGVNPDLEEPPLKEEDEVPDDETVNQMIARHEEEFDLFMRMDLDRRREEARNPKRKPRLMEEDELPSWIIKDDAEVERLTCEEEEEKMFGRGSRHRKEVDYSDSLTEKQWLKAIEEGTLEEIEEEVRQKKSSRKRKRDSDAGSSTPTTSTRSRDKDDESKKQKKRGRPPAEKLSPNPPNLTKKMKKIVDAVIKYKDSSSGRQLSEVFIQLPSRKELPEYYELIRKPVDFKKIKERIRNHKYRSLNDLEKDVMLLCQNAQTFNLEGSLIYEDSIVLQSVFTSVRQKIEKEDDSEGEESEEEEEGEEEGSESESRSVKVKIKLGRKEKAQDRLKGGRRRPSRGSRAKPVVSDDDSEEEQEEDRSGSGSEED
UniProt Q92922: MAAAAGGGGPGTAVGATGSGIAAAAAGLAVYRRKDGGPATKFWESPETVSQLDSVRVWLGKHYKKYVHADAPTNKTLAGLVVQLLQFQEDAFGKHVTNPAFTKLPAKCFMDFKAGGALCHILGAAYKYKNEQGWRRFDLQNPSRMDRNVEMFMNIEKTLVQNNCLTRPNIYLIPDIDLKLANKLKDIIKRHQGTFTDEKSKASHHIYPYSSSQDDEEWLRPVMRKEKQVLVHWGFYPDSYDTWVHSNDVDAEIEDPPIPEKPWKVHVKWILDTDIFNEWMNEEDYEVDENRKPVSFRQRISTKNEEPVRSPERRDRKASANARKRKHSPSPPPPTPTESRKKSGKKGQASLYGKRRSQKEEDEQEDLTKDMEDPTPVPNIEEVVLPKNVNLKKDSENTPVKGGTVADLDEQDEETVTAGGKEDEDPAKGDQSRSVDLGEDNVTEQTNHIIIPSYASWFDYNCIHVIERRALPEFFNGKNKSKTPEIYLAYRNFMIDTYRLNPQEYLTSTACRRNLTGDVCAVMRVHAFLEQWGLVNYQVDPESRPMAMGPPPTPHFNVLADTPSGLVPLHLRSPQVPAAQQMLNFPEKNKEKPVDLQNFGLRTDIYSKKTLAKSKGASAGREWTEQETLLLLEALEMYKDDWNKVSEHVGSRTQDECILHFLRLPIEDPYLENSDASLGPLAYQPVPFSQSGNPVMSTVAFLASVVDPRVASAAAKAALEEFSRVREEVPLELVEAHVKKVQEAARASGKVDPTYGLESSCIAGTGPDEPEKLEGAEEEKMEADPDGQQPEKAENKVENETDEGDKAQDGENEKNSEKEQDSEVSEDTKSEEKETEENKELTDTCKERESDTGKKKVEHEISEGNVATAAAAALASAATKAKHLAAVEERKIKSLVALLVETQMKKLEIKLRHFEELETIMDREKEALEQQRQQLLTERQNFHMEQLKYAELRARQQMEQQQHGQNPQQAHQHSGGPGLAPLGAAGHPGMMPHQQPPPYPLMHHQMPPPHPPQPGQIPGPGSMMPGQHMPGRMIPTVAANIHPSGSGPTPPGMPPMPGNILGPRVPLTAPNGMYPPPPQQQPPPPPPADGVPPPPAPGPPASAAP
UniProt Q92826: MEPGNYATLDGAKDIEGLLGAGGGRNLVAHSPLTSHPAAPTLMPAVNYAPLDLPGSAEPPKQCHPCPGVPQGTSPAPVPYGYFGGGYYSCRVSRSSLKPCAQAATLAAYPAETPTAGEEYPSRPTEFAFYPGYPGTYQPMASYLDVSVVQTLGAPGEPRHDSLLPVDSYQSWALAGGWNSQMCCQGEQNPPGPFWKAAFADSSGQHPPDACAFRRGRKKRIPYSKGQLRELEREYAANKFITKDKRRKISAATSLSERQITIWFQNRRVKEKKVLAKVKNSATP
UniProt Q14839: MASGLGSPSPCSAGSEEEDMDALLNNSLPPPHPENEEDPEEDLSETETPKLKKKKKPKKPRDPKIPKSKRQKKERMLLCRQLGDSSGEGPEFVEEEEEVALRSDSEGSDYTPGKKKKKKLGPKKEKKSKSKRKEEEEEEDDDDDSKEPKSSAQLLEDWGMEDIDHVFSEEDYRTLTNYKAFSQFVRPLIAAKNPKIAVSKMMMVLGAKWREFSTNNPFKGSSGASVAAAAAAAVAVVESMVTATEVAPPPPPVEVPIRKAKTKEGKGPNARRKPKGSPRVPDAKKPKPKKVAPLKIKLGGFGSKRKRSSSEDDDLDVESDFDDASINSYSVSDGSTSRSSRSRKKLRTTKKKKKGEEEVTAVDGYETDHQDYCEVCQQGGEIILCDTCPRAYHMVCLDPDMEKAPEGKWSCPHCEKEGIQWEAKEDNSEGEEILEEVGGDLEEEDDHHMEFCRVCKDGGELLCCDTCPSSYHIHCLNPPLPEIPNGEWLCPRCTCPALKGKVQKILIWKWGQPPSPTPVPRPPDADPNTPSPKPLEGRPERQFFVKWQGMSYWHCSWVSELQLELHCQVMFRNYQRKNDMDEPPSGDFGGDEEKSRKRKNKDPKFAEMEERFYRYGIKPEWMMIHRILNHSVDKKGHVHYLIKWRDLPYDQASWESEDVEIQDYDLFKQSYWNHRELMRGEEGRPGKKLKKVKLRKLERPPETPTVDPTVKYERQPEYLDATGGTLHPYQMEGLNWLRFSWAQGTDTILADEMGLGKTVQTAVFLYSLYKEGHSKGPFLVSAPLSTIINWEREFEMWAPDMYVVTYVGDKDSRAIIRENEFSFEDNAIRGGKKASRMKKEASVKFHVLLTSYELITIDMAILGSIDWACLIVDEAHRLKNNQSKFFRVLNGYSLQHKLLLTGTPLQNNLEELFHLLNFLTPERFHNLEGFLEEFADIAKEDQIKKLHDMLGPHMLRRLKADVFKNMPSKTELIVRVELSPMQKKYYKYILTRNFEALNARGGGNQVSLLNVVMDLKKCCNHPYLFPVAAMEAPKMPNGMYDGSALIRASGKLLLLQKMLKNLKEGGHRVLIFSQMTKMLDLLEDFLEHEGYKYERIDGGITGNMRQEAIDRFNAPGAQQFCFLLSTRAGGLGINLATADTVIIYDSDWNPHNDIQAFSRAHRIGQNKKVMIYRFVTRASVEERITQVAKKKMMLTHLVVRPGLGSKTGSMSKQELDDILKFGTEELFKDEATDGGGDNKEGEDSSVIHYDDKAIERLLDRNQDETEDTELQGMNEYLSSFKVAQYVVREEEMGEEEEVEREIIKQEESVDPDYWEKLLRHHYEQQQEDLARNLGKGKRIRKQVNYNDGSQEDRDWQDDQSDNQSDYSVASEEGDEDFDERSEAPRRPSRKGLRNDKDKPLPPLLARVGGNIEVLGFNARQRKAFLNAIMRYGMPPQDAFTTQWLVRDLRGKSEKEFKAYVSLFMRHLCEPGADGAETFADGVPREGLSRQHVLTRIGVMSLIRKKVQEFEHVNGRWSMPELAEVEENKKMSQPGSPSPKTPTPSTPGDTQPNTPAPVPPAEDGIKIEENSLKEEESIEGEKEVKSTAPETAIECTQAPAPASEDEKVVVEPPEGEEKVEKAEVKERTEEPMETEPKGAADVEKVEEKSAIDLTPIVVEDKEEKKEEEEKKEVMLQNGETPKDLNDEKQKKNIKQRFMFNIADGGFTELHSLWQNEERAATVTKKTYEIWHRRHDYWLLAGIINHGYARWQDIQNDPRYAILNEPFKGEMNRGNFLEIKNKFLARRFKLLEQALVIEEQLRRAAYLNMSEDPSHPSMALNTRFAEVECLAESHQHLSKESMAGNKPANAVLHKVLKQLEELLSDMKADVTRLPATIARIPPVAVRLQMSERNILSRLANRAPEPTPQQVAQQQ
UniProt Q9NP66: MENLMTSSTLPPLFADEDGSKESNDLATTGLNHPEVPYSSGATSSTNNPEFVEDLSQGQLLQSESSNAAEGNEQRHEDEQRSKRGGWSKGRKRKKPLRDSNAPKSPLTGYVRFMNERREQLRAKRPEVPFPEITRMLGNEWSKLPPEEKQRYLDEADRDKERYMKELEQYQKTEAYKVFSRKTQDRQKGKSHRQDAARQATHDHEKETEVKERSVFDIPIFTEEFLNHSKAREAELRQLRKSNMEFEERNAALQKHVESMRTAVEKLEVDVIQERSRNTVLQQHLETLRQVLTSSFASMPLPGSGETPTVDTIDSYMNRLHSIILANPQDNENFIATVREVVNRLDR
UniProt Q92782: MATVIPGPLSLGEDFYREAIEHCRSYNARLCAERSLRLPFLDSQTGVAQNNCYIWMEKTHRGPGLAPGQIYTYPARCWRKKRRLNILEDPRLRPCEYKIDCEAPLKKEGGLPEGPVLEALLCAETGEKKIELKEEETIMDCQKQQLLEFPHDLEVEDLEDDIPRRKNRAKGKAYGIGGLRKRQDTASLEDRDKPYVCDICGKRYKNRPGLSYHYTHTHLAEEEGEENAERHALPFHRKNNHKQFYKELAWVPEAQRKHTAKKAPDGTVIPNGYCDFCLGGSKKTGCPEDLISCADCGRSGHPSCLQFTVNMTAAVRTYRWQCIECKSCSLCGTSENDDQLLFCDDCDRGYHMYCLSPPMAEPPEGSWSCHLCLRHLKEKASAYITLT
UniProt O94805: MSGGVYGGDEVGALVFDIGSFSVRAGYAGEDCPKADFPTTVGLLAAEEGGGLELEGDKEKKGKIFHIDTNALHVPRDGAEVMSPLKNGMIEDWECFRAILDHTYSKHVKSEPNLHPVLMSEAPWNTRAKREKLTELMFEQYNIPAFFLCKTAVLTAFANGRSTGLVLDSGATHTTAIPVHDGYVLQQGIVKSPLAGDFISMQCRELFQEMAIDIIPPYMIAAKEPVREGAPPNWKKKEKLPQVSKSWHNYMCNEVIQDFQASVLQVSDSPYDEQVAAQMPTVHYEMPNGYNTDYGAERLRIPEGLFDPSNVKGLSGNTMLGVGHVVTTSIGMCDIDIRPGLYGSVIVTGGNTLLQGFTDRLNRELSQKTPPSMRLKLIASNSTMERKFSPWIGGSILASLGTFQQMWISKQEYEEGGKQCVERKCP

Molecule: HOXB13 (from UniProt Q92826 1-284)
- binding [1]: no binding (only in NCI-H660 (CRPC-NE) cells)
- binding [2]: binds
- binding [3]: no binding (only in NCI-H660 (CRPC-NE) cells)
- binding [4]: binds

Molecule: microtubule-associated factor MAP2 (from UniProt P11137 1-1827)
- binding [3]: binds
- binding [4]: no binding (only in LNCaP-AR (adenocarcinoma) cells)

Molecule: CHD4 (from UniProt Q14839 1-1912)
- binding [3]: binds

Molecule: HMG20A (from UniProt Q9NP66 1-347)
- binding [3]: binds

Molecule: BAF45B (DPF1) (from UniProt Q92782 1-387)
- binding [1]: binds
- binding [3]: binds

Molecule: BAF53B (ACTL6B) (from UniProt O94805 1-426)
- binding [1]: binds
- binding [3]: binds

B1: transcription factor NK2 homeobox 1 (NKX2.1/TTF-1) (protein, UniProt P43699 1-371)
chain: MSMSPKHTTPFSVSDILSPLEESYKKVGMEGGGLGAPLAAYRQGQAAPPTAAMQQHAVGHHGAVTAAYHMTAAGVPQLSHSAVGGYCNGNLGNMSELPPYQDTMRNSASGPGWYGANPDPRFPAISRFMGPASGMNMSGMGGLGSLGDVSKNMAPLPSAPRRKRRVLFSQAQVYELERRFKQQKYLSAPEREHLASMIHLTPTQVKIWFQNHRYKMKRQAKDKAAQQQLQQDSGGGGGGGGTGCPQQQQAQQQSPRRVAVPVLVKDGKPCQAGAPAPGAASLQGHAQQQAQHQAQAAQAAAAAISVGSGGAGLGAHPGHQPGSAGQSPDLAHHAASPAALQGQVSSLSHLNSSGSDYGTMSCSTLLYGRTW
- binding [1]: binds
- binding [2]: no binding (only in LNCaP (adenocarcinoma) cells)
- binding [3]: binds
- binding [4]: no binding (only in LNCaP-AR (adenocarcinoma) cells)

B2: growth factor VGF (protein, UniProt O15240 23-615)
chain: APPGRPEAQPPPLSSEHKEPVAGDAVPGPKDGSAPEVRGARNSEPQDEGELFQGVDPRALAAVLLQALDRPASPPAPSGSQQGPEEEAAEALLTETVRSQTHSLPAPESPEPAAPPRPQTPENGPEASDPSEELEALASLLQELRDFSPSSAKRQQETAAAETETRTHTLTRVNLESPGPERVWRASWGEFQARVPERAPLPPPAPSQFQARMPDSGPLPETHKFGEGVSSPKTHLGEALAPLSKAYQGVAAPFPKARRPESALLGGSEAGERLLQQGLAQVEAGRRQAEATRQAAAQEERLADLASDLLLQYLLQGGARQRGLGGRGLQEAAEERESAREEEEAEQERRGGEERVGEEDEEAAEAEAEAEEAERARQNALLFAEEEDGEAGAEDKRSQEETPGHRRKEAEGTEEGGEEEDDEEMDPQTIDSLIELSTKLHLPADDVVSIIEEVEEKRKRKKNAPPEPVPPPRAAPAPTHVRSPQPPPPAPAPARDELPDWNEVLPPWDREEDEVYPPGPYHPFPNYIRPRTLQPPSALRRRHYHHALPPSRHYPGREAQARRAQEEAEAEERRLQEQEELENYIEHVLLRRP
- binding [3]: binds
- binding [4]: no binding (only in LNCaP-AR (adenocarcinoma) cells)

— publication PMC7642293
